Source: US20260125468A1
No constants are given. Whether binding was seen depends on the method and setting. Binding can be weak; no strength is given.

Target: human CD3e&d-llamaFc
Assay: ELISA, plate coated with human CD3e&d-llamaFc at 1 µg/mL, anti-human IgG Fc-HRP [A]

binding: binds
B1: PR006364, anti-CD3 A1-HCAb hIgG1(C220S, AAG) (antibody, V domains shown)
VH: RIRLVESGGGLVQAGGSLRLSCAASGRTSGIPAMAWFRQAPGKEREFVAMAWSGGGTIYGDSVKNRFTISRDNTQNTIFLQMNSLKPEDTALYYCAAGRSTSNRADQYNYWGQGTQVTVSS
